# According to PubChem BioAssay AID1347426 (Functional Genomics Laboratory (NCATS/FGL), 2020):
# The whole screen tested about 31,000 sequences, of which about 1,400 (4.5%) were called active.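 How the source made its calls: active means median seed-adjusted z-score above 1 or below -1; inactive means the rest.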 Some of the results follow.
# Assay: Novel Modifiers of Survival Motor Neuron (SMN) Protein: Gene Identification via Genome-wide siRNA Screen;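 further: luminescence tracks full-length SMN protein made from the SMN2 reporter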
# Settings: HEK293T SMN2-luciferase reporter, siRNA knockdown, 72 h; actives lie on both sides
# Method in brief: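 Genome-wide siRNA screen (10418 genes, 3 siRNAs each, 1 pmol per well) by reverse transfection in HEK293T cells stably carrying an SMN2-luciferase reporter; luminescence after 72 hours, normalized to negative-control siRNA, log10-transformed, MAD-scored.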
row,Sequence,median seed-adjusted z-score
1,GGUCAAAGAGUUAUAGAUUTT against MKKS,active: 1.03
2,GCUUAGAUCACAUAGCAGATT against FBXW11,inactive: 0.206
3,GGCGAGAAAUUGUCCUAUUTT against NKX2-3,inactive: -0.2
4,GGAGGAUAUUAGUAAAACUTT against PCDHB16,inactive: -0.523
5,GCUUUGUGAGUUACGAAAATT against PABPC4,inactive: -0.42
6,CAUGGACCCUGAUGACAUATT against UROD,active: 1.11
7,GCCUCUUCUCGUCACCCAATT against KCNF1,inactive: -0.19
8,CAGCAGACCUGAUGACUUATT against GNG3,inactive: -0.186
9,CACCUGCCAGUGUUAUUUATT against CRIP2,inactive: -0.226
10,GAGAGACCGUCACACUGAATT against GRIP2,inactive: -0.0256
11,GUAAUUAUCUUCCAUGAAATT against KRT37,inactive: 0.0484
12,GAUUCUUGAUGCUAUCGAUTT against ARSF,inactive: 0.111
13,CACCAGAGCUUGAUCGUCUTT against CYB5R4,inactive: 0
14,GCUGAAAUCAAAAAGCGGATT against RAB1B,active: 1.55
15,GGAUAUCUUCUGCGACAAUTT against CRTAC1,inactive: 0.113
16,GCUCCUUACCUGAUGUUGATT against HERC4,inactive: 0.00343
17,GCCGGAAGAUGUGAAGAGATT against PMPCA,inactive: -0.985
18,CAUUCAAAUUUACCCUGUATT against POLR2H,active: -2.74
19,CAAGGCAGCUCUACACUCATT against SPHK2,inactive: 0
20,CAAUGUCGAUGAGCUGUUUTT against GYG2,inactive: 0.113
21,GACUUGGAAGGGUUUAAGATT against ABCD4,inactive: -0.114
22,GGAUGGUCUUUUAGUAAGATT against CBR4,inactive: -0.66
23,AGACCGCACUGACAGAGGATT against BAIAP2,inactive: -0.0497

row,Sequence,median seed-adjusted z-score
1,CAACAAAUCAAAAGUGAGATT against EFCAB4B,inactive: 0
2,UUACACCGUUUGUUAAUAATT against NAT14,inactive: -0.283
3,GCAAUUUACUUUCAAGGUATT against SYT1,inactive: 0.435
4,GAACAAUGGUGGAUCCAAATT against PARVA,inactive: 0.0852
5,CAACCACUUUGAGACCUAUTT against WFIKKN2,inactive: -0.353
6,UCUACGACGUGGACGGUAATT against RCVRN,inactive: 0.562
7,AGAGCCUAAUGGACAGUGATT against DHRS3,inactive: 0.175
8,GCUUUCAGCUGAACGAACUTT against LTF,inactive: 0.236
9,GCUGAGUCCUUCUUCCAUATT against XYLT1,inactive: -0.274
10,CGAGUGUAUGAAGAACGAATT against LAMC1,inactive: 0.0473
11,GGAAAGUUAUCAGGAUGCATT against SAG,inactive: 0
12,CGUGGUCAGUUUGAACGAATT against TTLL4,inactive: -0.256
13,CGACAUUCAGUUUACCUUATT against SOX17,inactive: -0.46
14,GAGUUCCCAUCUUCAAGUUTT against ZNF45,inactive: 0.172
15,GGUGACAGAUUGACUGGGATT against CRADD,inactive: -0.255
16,GAAUAAGCCGUGUACUGAUTT against CASD1,inactive: 0.202
17,GAACCGCCCUCCUGAUUAATT against WNT3A,inactive: -0.66
18,CAAUAUCGAUGAGGAUUUUTT against MPP3,inactive: 0
19,GUCCAAAUACAGUCUCUUATT against MAP3K14,inactive: -0.0609
20,GCGUGGUGUUGCUAACCUUTT against CCL22,inactive: 0
21,GAACCUCCGCAGAGACAAATT against EIF3D,inactive: 0.104
22,AGAUCUACCAGAAGAUUGATT against EHD1,inactive: -0.616
23,GCAUCCGUGUCAUUCUGGATT against SLC3A2,inactive: -0.0428

# Another view of some results above:
row | Sequence | median seed-adjusted z-score
11 | GGAAAGUUAUCAGGAUGCATT against SAG | inactive: 0
12 | CGUGGUCAGUUUGAACGAATT against TTLL4 | inactive: -0.256
21 | GAACCUCCGCAGAGACAAATT against EIF3D | inactive: 0.104

# (next part)

row,Sequence,median seed-adjusted z-score
1,CCAAGGUCUCAUCUUCGUATT against ARF6,inactive: -0.805
2,GGGAGAUCGUCAUCCGAGATT against PHKG1,inactive: -0.153
3,CUCUUUACUUGAACGAGAATT against TSC22D2,inactive: 0
4,GGCUAUCUACAAAAUGGUATT against VSNL1,inactive: 0.0569
5,ACAGACCUGAUAUCCAGAATT against MECR,inactive: 0.0339
6,GAAUUGGAAUGUGAGGAUATT against ZNF622,inactive: -0.462
7,AGAUGGAAGUCGCAUUGUATT against RAB40A,inactive: 0
8,GACUAUAUCUCCAGAUUAUTT against FKBP1A,inactive: 0.113
9,UGAUUAUCAUCACAGCAGATT against THAP1,inactive: 0.139
10,CAAACGAUCUGAAGGUGAATT against AKTIP,inactive: -0.194
11,CAAUAACCAUGAACUUCGATT against B3GALNT2,inactive: -0.227
12,CAACAAUAUCAUAAGGAAATT against PSPC1,inactive: 0.0612
13,GACAGAAGGUAGUAGGAUUTT against SEMA4D,inactive: 0.309
14,GGCUUAUUUGAAUACGUAATT against SRD5A1,inactive: 0.0945
15,GAGAGUUUAUGUUCGAGAATT against MCF2,inactive: 0.51
16,GCAUUACAAGAUCCGCAAATT against FGR,inactive: 0.596
17,ACUAGCUGCUGGACAUGAATT against GJA1,inactive: 0.348
18,CGAUUAUACUUUGACGACATT against ETV5,inactive: 0.0756
19,CAAAAGCAGUUCGACAAAATT against ALDH1A3,inactive: 0.228
20,GGACGAGACUCAGAGUCAUTT against CD93,inactive: -0.0879
21,GCCUCUUCUUCAACCGCGATT against SLC19A1,inactive: 0
22,CUGUCUGCGGGUUCUUUUATT against NAT14,inactive: -0.283
23,GAUCUGGUCGAGUUUAAAATT against NAT2,inactive: -0.0495
